Measurements reported in publication PMC6957481.
These are yes or no findings as the source states them, for the method shown. Binding seen in cells or lysates may run through a third protein. Here binding means that the protein was enriched with, or labelled near, the bait; the list need not be complete.

B1: hypothetical protein TTHERM_00105100 (protein, UniProt Q234I6 1-266)
chain: MLLYNIDQDEGNQQQDTENRQNNNQDYSYGNEQRRQVQQMELELQNANNIDTQSENNQQKAQQNQKSMVEEIDEDKIRQEKFDQKEKEFRDAQLREKKMCMKVHFKNKQIIEIKKLVEQNTLTLQYYEQKKYLQPTDVNYSRSLLEEYCSLRDKINKCNETLRQLKIKRWDSETFFQNLKDLQRQEESLSSYIKISEYTKEQKQQEIKRIEEYKEQIKKINDEIEKLKEKHIQNSDNYSTIKLQLKEQNQKNESLRQQIESLKRNN
B2: hypothetical protein TTHERM_00295430 (protein, UniProt I7MIE0 1-212)
chain: MGGDHHHEDSHHKSNVDQHELKAEMIKELSHYYDHHDLSLFGKVQHFVEHLLEEKHHAKINTSNFDQKKLENFSESKQISRTVFALKKIKTFNHDFFTSEEEMILEPLPLGILTYGLKYAFAGVDAALLTYFWRNWNFNVRTIGLLGGLVGIQMATLHIPNLVNEVVIQTPRRRALAKKYISAYGPQFFHDIVNPKYDIEHLRHLQNKLNPY
B3: hypothetical protein TTHERM_00616320 (protein, UniProt I7MAF0 1-127)
chain: MLARTLKNYMRVQQNLRFSRANIEKSPAPPTIGQVELEPFKFNHERDQLIYGYTMEELYGKKFGLKHSATVLREIKKDTIMMILFIIGGFTYCYHMRETRFQLDDDFNEYVNTNKQTFRPIPDHVKL
B4: TTHERM_00442520 (protein, UniProt I7MD50 1-1039)
chain: MSNQKGEIPESILNDYLQMGLNEQLLRLAYRNCKGQVNSLLDEYQHLLASNNQVLNEQQNKISNLTDNMDEEVQLNQAILASQQEAKEKNISFEPLNPEQRIRKEGIPVGLKNLGNTCYINPLLQSYFYNAEFCYAIINFQKPSEEEIQKRLKNDSTQSNSSDEQFQKDSTEQNILLKRVKASVELVCALQELYILLVGSDKKYIDPSKVIKNIVDEQGNQIQIGDQQDIGEFNLTFLARIDEGLSYSKKSFNKGAMEEELVHSLMRASSTSISQGEQELQRSISISMSDTSVVNSNFFGKASIHMSYPLGEETFEKQEEELFNIIFLDIKHKELYYALDEYVVNHIDEFKNDKGDIVQAQKYNWIKRAPKTLFFQLQRVVFDKEKGCLKKLNDSFNFENQIYLERFTEERSKDYLRIREQVNKLIYEKQQYELALNNINQYSNHLSQNQTKSNAKPEENKDQQSNLGLLSALESTILFLQTNSKKVDVNPLVDPSYFGDNSKENLQIVKALEQYTSKVKQRIQELQEKIRQLENKINESYNGFKKEKYLLQSVIIHDGQADSGHYYAFIKDHSTKKWWRYNDIQVSEETEENVFKEALGGWGKASAYSLIYVKEEVAIPPQAKEKPIRLHLASNTVNQLSASQVRTVDYYTSIIPEDLLNNLCVENLKFQEEIEEYKASNTSRQIIDMYTRRFELNNECARKGDEARKKVKGSPPPFIQFCVYLKLHPKNDKGQFDDLIKWLILDSCVREHYKNAQHLNNLSDKKLEDKLKQQIASLGNFKAPKSIKISAENSDTIEQINSEFIKQLNNAEATIFAMQAALKFDWISSLAAFDYLIDLNFFSDQNKQAQFKDDYFFKISRDTKLIILIAMLHYYELKVPFCTKEDSQEILNGIQVFIGFYKKQNKPDQKTQVTFSLWIDDISQLASDQNLQQEIKKINSEYMSASNNNRYIQGEEPLKNIPTELKERLEKLTSEGDMYYWNANKKEDYLFNELISNFDKIKAHFDTYIKFIQKIRASQTPLFKQDRLFSTNVQSYNIK
B5: TTHERM_01082940 (protein, UniProt Q22BX4 1-462)
chain: MSQQQQYKGKCNCPFCSRFNKMQGEINRDEIEESKENQSNSYSQNYQQYEKLKSSQVQQDENDQNQYVQNNQQYEIQQNQNDQNNQNNPLYDQPFKFEVNHNIDNDLQMIKDWIGQFSNLKDVQQQNEASHDFMQNFVTQYPTSDLSLPDISFHFKPDGSQAILFSIFCQPEILQKCVAKRNDIAELFYDSIGFTILLVIKPKIDYKNFDQKHQEFNSNEIPLEVFISNKFESQQKILYKIGLQAKRQIKVFPQIQNLRLRRDLNELFECLDDKFEFNYSNCSDHCFAYYTQSDNLNQLEGLIIGPQDTPYEGIPYTVTIQIPDQYPIEPPKVTFNQQILHPNISEQGEICLNILQDKWSTVLTIQKVLVSIVSLLYEKNLDDVYNHYAKTLYQEDPEEYKTLIKKQSILQDSQKLKIDFKQLAKVPINEQNGYDEYENNDGYNTYEGYDDDDYQYMDIEDE
B6: TTHERM_00402120 (protein, UniProt I7MIM2 1-410)
chain: MTYQLLAPAGNFRANMLLTIAELVGVKLELVHTEYAATKTPEFKQKNPLGKVPVLITPEGPVYESNAIARHLARTAGKLYGANQHEAALVDQYLDMAVTELLPSLTTTLYAIFGFKPADKEVLKAAKQETFSVLRILNERLTHHKYLAGENLTIADIQLATFLNLAFRVTISGEQKKPIAKVVEYFVRVAQLPEFTKYHGRPHFATSEFQTVAAPAAEAKDNKKKEAAKAKEAPKPKEAPKKKEEKVEEEEKEEQPASGWNLYDYKTLYVNAKNKEEAIQNLVENFDAKTMCIYHLHYQKYTGDGQVLYLFNNMKNNFLQRCDPARKVAFGTYSIYGEEPNLEISGVWLFMGATIPPQMNENPSFEYHDLKQLDITKAEDLQILRNYWTNTEEDTSVVDGLRLRSFGSFK
B7: hypothetical protein TTHERM_00494750 (protein, UniProt I7M9X8 1-628)
chain: MLKYFNLFNKNITSVQLLNQKFAFTFCSTQQPQQEETQNQQKQQQQQRKGQNKNQGKQHGGSQKNSIQQKDLDQFLNTLLQDADARKISASRYDIDLYRRESIKNRFNIMSFALAKCYIQHMKFFNEFFSEKDFENLIIKYEVKNLDQFVFNFSLATALTLNVNNKQIQKKYKYLYSQYLKFYQSIDQNESTSSSTAIQKLMFVLNIINFGNNQKQYLDYVKEFIPTYFQQVLESVQFYSKDSYDINDILFASKYYNFTQTFNKQDAFDKYCKVLSQVKLDQNQTISKYDALNLIQAASHATFQQKNFIIQNQQVLDEIVKMCLDALEGDLQKELNLEFVYFYIMSSETFIKNKEENMKYCKLLEKNLEREHSNQIKTNILYSLGKSSIVTPKIKEYIQSSINNIQTEKIHQFDKYVSCLLLCAANLGIITKDNISKYLIESIFSSDIKFRYKYIDYLAIVFYRIQYFEKDVWEQIFQRIDHNQESFYLNLIRCSYKAYQNLMSQETLALFEQNLGKQSKSFTLKENPIQIQEEIQLKNYLEQKNISHKQSQFVDGFYTNFILNEKDVVFILKYNSYLVEENSTEVKFNLSTQSKIDYFQKLGYNLIILNSSEGDVCQLFEQAYKPSN
B8: hypothetical protein TTHERM_00220810 (protein, UniProt I7LVZ7 1-1407)
chain: MSLFSELPLDAGTDEQITQIAVSNVSINPSLAIITPHKILLFNECGEKHDYELSRNIRCTYVQWHPSQPIIALGWETGAITLWSEETKVAKEEPNGHKSEICLIQFNPSGSRMVSADIDGNVTVWRGINIVSQYKKEQSITHAIFCELNIDSKLKSGNLFFFGGKSGVVCLADDANHCSDVCKVGGSIKSLLFYEKENSVIIITSTLLLVMFKISTSVKTGPSKRVKLSISGDPQKLQSIWIGSCLLATCSHENMLRMWHLDQDDNYVLTLHQLAQQTQTQQGAATVIQSTNTNDQITSIQYEKRGKVLVAGTREGRIIFWKNLSIGSESPLDVDEWKMLPYVSVRQGVNSIAVGQNNGLIAVQYGNQISLVQETVINGKMTDQVRLLQSSANTIKIYINNDISNQVLHFQSKGNIKGLDCNDQFMLLWTSKTIEIHEIIINPKESQTKLVASIQEKCLRSVIHKENIILVNDMELNVLNFKGIQKQNLKFSESEGKILNVNVLNNHLIMWTSNNYIRLFDISRREVKQIGVTRRFENSQGQLGQIRYCAVNSDGSKIVITADQRGKSGPQADNKFYIYDVQTDNFLLYEMPAKCIPLQPYCDRKDRKFFGISCIINKNIQQEKNADENNDENEDNKSDKSRNEDDDEKDKSNLEFYTFFVTSENGIRKQDQYQLESSIEAVFAIDIPKLYFIKRNKKTNSSGQNYKIVEKYLNDFVGLEKIDNQIKEAIMNFSFYLTMDNLDEAYKSVKQIQNPSIWEKMASMCVKTKRIDVAEICLGNMRFARGSKAIREQKKEPELDAQLAMVAIQLNMKDEAVKLYEQSKRYDLYNKMLQAEGNWEKAIQISENHDRINLKNTYYRTAQMYEVSNNYEQAILYYEKSGTHVKEVPRMLLEAGQTEQLERYIIDKNEKPLFKWWAQYLESNYRIELAVKFYRQSEDYDQMVRLFLTKNDVQTASSICSETNNSAACYILAKYLEMNGQIPEAIQYYWKSQHYTQAVRLAREKGMDNEVMSISLQGPNQVKLQSAAYFEEKGFKQKAVELYKKGGNLIKAYNLAQEEKLYDEAKQIARQIEQEEDQRNKKRDPNDLAGIIDDFIEKGQPERAVPLMIKAKQFERAIETCIRFNIPITQDLVDKIIPTEPAKNAAEENKRKELMKLIADTSIKQGDYRLSSKLYTKLGNQVEAMKCLINLGAIDEVVNYATMARMPQLYILAGNFLQTTDWHKNPQLMKHIITFYNKAKAYDNLAGFFDACSSVEIDEYRDYEKAAAALNEALKHAKKSTSESRDFRIEQLETKLNLVQKFVQARALFSSDPQQMKQICEDLLAQPGIDQSVRSGDIYAQIIEYYYQVKNFSQAFDYIKKMQQKRIILAPYLDQEMLQQILESQGVSLNSKNKNNDDEFIEEDVPE
B9: hypothetical protein TTHERM_00586710 (protein, UniProt I7M8T5 1-694)
chain: MSNDNKSNASSRLSALNSQMPELSPSQLLHSYRNRSKVDRQGLYETFYGPKWEFRNKVYDIICNNSEKFSAPYIDEHDRERTRYAAFKELHFIQKSLNMGYAEYQKDPHAFSMTSNAVYSWSPAICVKYGVHFSLYGKTLMNLGTEKHLPYIYRMMKLEDIGSFGLTEMGHGSNVRGIKTTAIYDPQSNEFIINTPEEVDMKFWIGATAQLANMTVCWAQLYVEGKCHGVHAFLVPIRNKDTHRVMPGITVGDCGPKNGLDGIDNGFMIFHNVRIPYDNLLDKFSQIENGKFKTWIESDDKRFGFQMASLSGGRVQVACNSNQNSIIAVAIAGRYSTIRKQFGAPGKPEQPIIEYPLTQYRIIPNVATAIVLQLSTITLSILWDENQKHLLDVKNTLINELHAISSAIKAISTWTAQRIITESRQILGGHGFSTFNRFGQLYNDNDVNVTWEGDNNVLLQQTGKFLLDSAKKLMKGKKLPFKCTSYISLDPAEGQQSELNSNEDFFNQGKLLKALQWRVNLLLQKTGLKMQEYMQVSKNGWDAFNNAQPFYSVELAKAFGDTWSAEQAIETISKVQNPENKRVLSDFVTLYLLETINKDIGNFRFGGYINCQQYEQIRSSILKLCNKLKDEFIAVLDALAPPDFILQAPFGASDGDIYNRYIGLIYSAKSTFKRPDWWKEVHKAHKKYHFEIDA
B10: Rpl19 (protein, UniProt P0DJ60 1-185)
chain: MVSLRLQKRLAASVLKCGQKRLWLDPNESSEISMANSRASIRKLIKDGLVMKRSTVIHSRSRARAFLEAKRKGRHTGSGKRKGTRNARMPTKVLWMRRQRVLRRLLRKYRAAKKIDKHQYHEFYLGSKGNLYKNKTVLIEAIHVSKADKIKSDKLTSQQEARRAKNTASRAKRNEKAQIVAKVDV
B11: Rpl21 (protein, UniProt Q23TC8 1-157)
chain: MTHSYGYRRQTRKKFAKAYKTKGHVRISRYLTTYKVGEYVDIMVDGSQHKGMPYKLYHGRTGKVFNVNPRSIGVIVHRIVNGRYIEKRLHVKIEHVRPSNVKTALSKRYQANDQAKAEGNKAGKRVSTKRNPGQPLEAVQVQGAVNFQHPKVFREIF

Legend:
[1] = target: Hho1-FZZ (Tetrahymena thermophila); test: affinity purification with mass spectrometry; FZZ-tagged bait expressed from its endogenous MAC locus, captured on anti-FLAG M2-agarose at 4 °C from Benzonase-treated whole cell extracts (10 mM Tris-HCl pH 7.5, 1 mM MgCl2, 300 mM NaCl, 0.2% NP40); cells in vegetative growth, starved 24 h, or conjugating (6 h post mixing); two biological replicates; SAINTexpress against untagged cells, FDR ≤ 1%
[2] = target: Mlh1-FZZ (Tetrahymena thermophila); test: as above

Row | Binder | binding [1] | binding [2]
1 | B1 | binds | –
2 | B2 | – | binds
3 | B3 | – | binds
4 | B4 | – | binds
5 | B5 | – | binds
6 | B6 | – | binds
7 | B7 | – | binds
8 | B8 | – | binds
9 | B9 | – | binds
10 | B10 | binds | –
11 | B11 | binds | –
